Results from publication PMC6580496.
No constants are given. Whether binding was seen depends on the method and setting. Binding seen in cells or lysates may run through a third protein. Some results given as binding are weak or reduced against the parent protein; the word gives no strength.

Protein sequences, listed by entry. Tags and fused reporters are not part of them. Lines headed by an entry give the natural chain unless they say otherwise; changes in a name come on top. Chains listed by the source or under a name are the forms on record and can include a tag or linker.
UniProt Q06609: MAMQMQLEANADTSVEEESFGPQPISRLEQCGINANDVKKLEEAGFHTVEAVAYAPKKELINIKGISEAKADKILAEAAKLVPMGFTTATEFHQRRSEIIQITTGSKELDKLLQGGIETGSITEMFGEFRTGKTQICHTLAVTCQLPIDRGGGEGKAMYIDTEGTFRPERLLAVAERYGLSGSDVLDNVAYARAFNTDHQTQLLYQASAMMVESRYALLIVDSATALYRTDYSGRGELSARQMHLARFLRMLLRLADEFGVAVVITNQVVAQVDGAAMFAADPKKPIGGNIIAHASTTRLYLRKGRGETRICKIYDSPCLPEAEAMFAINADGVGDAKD
UniProt Q05397: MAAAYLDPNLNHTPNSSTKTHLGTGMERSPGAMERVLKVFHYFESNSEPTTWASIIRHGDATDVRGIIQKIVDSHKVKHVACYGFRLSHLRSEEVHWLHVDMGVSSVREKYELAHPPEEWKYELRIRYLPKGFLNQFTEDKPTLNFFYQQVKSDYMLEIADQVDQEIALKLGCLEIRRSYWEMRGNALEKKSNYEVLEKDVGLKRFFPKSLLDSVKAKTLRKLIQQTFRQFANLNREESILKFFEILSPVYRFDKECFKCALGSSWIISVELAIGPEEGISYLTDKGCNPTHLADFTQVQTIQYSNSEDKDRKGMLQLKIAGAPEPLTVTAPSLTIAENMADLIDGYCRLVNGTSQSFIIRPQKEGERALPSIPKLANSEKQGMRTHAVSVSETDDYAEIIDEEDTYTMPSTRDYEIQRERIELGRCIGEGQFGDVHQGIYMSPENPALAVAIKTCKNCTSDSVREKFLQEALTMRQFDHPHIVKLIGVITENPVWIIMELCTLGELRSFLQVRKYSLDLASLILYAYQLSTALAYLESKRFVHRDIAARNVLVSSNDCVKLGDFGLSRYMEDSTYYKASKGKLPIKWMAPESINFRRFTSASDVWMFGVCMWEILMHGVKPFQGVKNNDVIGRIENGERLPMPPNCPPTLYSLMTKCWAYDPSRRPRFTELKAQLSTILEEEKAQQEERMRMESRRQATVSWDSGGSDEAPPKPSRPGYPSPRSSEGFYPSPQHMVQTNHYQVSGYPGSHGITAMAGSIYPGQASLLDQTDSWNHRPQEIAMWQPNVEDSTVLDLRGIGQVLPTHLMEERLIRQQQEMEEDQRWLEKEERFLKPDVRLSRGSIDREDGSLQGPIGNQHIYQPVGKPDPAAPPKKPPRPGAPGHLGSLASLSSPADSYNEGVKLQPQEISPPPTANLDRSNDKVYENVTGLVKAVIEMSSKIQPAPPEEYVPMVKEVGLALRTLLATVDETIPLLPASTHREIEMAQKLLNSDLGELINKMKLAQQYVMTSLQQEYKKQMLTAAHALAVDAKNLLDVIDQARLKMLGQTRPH
UniProt P20700: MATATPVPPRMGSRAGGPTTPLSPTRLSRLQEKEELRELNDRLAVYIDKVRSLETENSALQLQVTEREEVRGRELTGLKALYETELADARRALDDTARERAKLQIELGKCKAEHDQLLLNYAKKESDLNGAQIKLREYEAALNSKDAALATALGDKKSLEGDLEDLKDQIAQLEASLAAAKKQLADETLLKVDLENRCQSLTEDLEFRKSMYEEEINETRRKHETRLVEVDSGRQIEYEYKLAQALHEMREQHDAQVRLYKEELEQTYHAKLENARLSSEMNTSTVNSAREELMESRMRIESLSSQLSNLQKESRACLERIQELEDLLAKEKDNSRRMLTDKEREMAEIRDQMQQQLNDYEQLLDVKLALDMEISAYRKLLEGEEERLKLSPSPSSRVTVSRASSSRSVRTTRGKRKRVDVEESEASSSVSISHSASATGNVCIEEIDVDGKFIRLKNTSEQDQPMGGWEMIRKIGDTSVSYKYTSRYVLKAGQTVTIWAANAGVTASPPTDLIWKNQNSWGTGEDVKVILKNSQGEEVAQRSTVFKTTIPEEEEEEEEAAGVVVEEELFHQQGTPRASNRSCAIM
Dystrophin Dp71 (human (endogenous in HBE)) (P11532-7, form named): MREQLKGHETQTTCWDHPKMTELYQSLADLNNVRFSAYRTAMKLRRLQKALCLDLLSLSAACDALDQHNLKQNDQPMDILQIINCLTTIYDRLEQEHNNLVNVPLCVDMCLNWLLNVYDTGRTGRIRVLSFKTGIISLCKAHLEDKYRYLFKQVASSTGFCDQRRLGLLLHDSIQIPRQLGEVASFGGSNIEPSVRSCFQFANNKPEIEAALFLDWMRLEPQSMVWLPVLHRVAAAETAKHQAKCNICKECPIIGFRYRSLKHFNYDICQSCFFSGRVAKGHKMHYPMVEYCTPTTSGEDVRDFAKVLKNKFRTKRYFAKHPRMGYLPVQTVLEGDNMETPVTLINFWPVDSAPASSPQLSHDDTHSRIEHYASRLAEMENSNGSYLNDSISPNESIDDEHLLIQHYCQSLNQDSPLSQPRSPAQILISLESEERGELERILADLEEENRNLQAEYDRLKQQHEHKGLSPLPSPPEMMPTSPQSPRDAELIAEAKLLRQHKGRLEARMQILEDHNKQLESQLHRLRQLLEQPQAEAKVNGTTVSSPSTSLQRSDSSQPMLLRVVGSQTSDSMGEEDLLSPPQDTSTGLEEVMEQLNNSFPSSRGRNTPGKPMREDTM

Columns and labels:
Assay in all cases: co-IP; endogenous proteins in HBE total protein extracts; incubated overnight at 4 °C with 5 μg rabbit antibody (anti-lamin B1, anti-Dp71, anti-FAK or anti-RAD51) bound to protein G magnetic beads; washed 3 times with PBS containing 0.1% Tween 20; Western blot with mouse antibodies; irrelevant rabbit polyclonal antibody as negative control
[1] = target: RAD51 (human (endogenous in HBE)) (UniProt Q06609)
[2] = target: focal adhesion kinase (human (endogenous in HBE)) (UniProt Q05397)
[3] = target: lamin B1 (human (endogenous in HBE)) (UniProt P20700)
[4] = target: Dystrophin Dp71 (human (endogenous in HBE)) (UniProt P11532)

## Dystrophin Dp71 (from UniProt P11532-7 1-617)
[1]
  binding: binds
[2]
  binding: binds
[3]
  binding: binds

## RAD51 (from UniProt Q06609 1-339)
[4]
  binding: binds
[3]
  binding: binds

## focal adhesion kinase (from UniProt Q05397 1-1052)
[4]
  binding: binds

## lamin B1 (from UniProt P20700 1-586)
[1]
  binding: binds
[4]
  binding: binds
